Reference: article PMC7949057, “The cytoprotective protein MANF promotes neuronal survival independently from its role as a GRP78 cofactor” (The Journal of Biological Chemistry, 2021)
No constants are given. Whether binding was seen depends on the method and setting. In cells and extracts the contact can be indirect.

By UniProt entry, the sequences of proteins in these tests, tags left out.
UniProt P05412: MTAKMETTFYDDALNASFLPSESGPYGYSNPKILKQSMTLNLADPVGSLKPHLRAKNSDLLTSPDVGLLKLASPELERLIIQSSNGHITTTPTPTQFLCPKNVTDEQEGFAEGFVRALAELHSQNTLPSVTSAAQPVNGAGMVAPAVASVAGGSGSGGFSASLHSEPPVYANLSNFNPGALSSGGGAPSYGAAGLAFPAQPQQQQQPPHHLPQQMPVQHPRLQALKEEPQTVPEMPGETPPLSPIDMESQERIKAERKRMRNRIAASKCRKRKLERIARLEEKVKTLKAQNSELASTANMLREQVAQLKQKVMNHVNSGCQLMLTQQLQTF
UniProt P61244: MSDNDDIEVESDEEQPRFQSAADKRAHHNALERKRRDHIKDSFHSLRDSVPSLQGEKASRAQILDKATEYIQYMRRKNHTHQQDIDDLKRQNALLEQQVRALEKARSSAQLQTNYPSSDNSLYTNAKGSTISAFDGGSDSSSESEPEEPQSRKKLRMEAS

Target: Jun-NV (UniProt P05412)
Assay: split reporter; split Venus BiFC (NV, VN173 and CV, VC155) in co-transfected HEK293 cells, fixed 20 to 24 h after transfection, confocal imaging, ER shown by anti-calreticulin

- binding: no binding
Substance: Max-CV (from UniProt P61244 1-160)
